Here are results for two compounds from the RepoRT retention time repository.

This data set in a line: RP, Restek Raptor Biphenyl, 100 × 2.1 mm, 2.7 µm, 50 °C, 0.4 mL/min, estimated dead time 0.55 min; A: water + 0.1% formic acid, pH 3; B: methanol + 0.1% formic acid, pH 3; gradient (min/%B) 0/5 1.12/5 6.41/99.5 10.01/99.5. The following applies: stereoisomer not certain.

As for `O=C(O)C(=O)Cc1ccc(O)cc1` [3-(4-HYDROXYPHENYL)PYRUVATE], the LC retention time was 3.31 min.

Turning to `O=C(O)C1=CC(=O)C(O)C(O)C1` (configuration not stated) [3-DEHYDROSHIKIMATE], the LC retention time was 0.746 min.
